The results in this text go back to patent publication US20020182717A1, “Method of preparing supported lipid film membranes and use thereof” (Biacore AB, priority 2001, published 2002).

This series is described as follows: On surface reconstitution of lipid membranes: deposition of octylglucoside/lipid mixed micelles on sensor chip, SPR (BIACORE). The following applies: for Lipid deposition level Relative POPC (%): at optimal octylglucoside/lipid ratio, Pioneer Chip L1; for Optimal detergent/lipid ratio: octylglucoside, CMC not subtracted from the octylglucoside concentration. On the technique in general: In SPR one partner is held on a chip, and binding of the other changes the refractive index at the surface.

In the case of `CCCCCCCC/C=C\CCCCCCCC(=O)O[C@H](COC(=O)CCCCCCCCCCCCCCC)COP(=O)([O-])OCC[N+](C)(C)C` [POPC, 1-Palmitoyl-2-oleoyl-phosphatidylcholine], the “Lipid deposition level Relative POPC (%)” value stood at 100% and the Optimal detergent/lipid ratio was determined as 7.3. Further, the optimum deposition level entry (Pioneer Chip L1, mixed micelles with octylglucoside) was “about 5000 RU”. In addition, the lipid deposited result (reference flow cell with unmodified Pioneer Chip L1-surface, 3.3 mM POPC and 25 mM octylglucoside) is on record as “about 5000 RU”. Moreover, the POPC deposited result (rhodopsin-immobilized flow cell, 2 min injection of 3.3 mM POPC and 25 mM octylglucoside) was “Around 4500 RU”.
As to `CCCCCCCC/C=C\CCCCCCCC(=O)OC[C@H](COP(=O)([O-])OCC[N+](C)(C)C)OC(=O)CCCCCCC/C=C\CCCCCCCC` [DOPC, di-1,2-oleoyl-SN-phosphatidylcholine], the “Lipid deposition level Relative POPC (%)” value was 95% and the Optimal detergent/lipid ratio is 7.5.
